Test results taken from article PMC6219760.

Biological target: VC-Venus fragment alone (C-terminal fragment of split Venus)
Test: split reporter; BiFC with split Venus (VN, VC); mRNAs (200 pg each) injected into one-cell zebrafish embryos, fluorescence imaged at 3 hpf

B1: Vasa-VN (Vasa fused to the N-terminal fragment of split Venus) (protein, UniProt O42107 1-716)
chain: MDDWEEDQSPVVSCSSGFGLGSNGSDGGFKSFYTGGAGNDKSNSEGTEGSSWKMTGDSFRGRGGRGGSRGGRGGFSGFKSEIDENGSDGGWNGGESRGRGRGGFRGGFRSGSRDENDENRNDDGWKGGESRGRGRGGFGGSFRGGFRDGGNEDTGRRGFGRENNENGNDEGGEGRGRGRGGFRGGFRDGGGDESGKRGFGRGGFRGRNEEVFSKVTTADKLDQEGSENAGPKVVYVPPPPPEEESSIFSHYATGINFDKYDDILVDVSGSNPPKAIMTFEEAGLCDSLSKNVSKSGYVKPTPVQKHGIPIISAGRDLMACAQTGSGKTAAFLLPILQRFMTDGVAASKFSEIQEPEAIIVAPTRELINQIYLEARKFAYGTCVRPVVVYGGINTGYTIREVLKGCNVLCATPGRLHDLIGRGKIGLSKVRYLVLDEADRMLDMGFEPEMRKLVASPGMPSKEERQTLMFSATYPEDIQRMAADFLKVDYIFLAVGVVGGACSDVEQTVVQVDQYSKRDQLLELLRATGNERTMVFVETKRSADFIATFLCQEKISTTSIHGDREQREREKALSDFRLGHCPVLVATSVAARGLDIEQVQHVVNFDMPSSIDEYVHRIGRTGRCGNTGRAVSFFNPESDTPLARSLVKVLSGAQQVVPKWLEEVAFSAHGTTGFNPRGKVFASTDSRKGGSFKSDEPPPSQTSAPSAAAAADDEEWE
- binding: no binding

No constants are given. Whether binding was seen depends on the method and setting. Binding seen in cells or lysates may run through a third protein. Where a sequence is shown, tags or fusion partners need not be part of it.
